# Measured values from publication doi:10.1101/795211 (bioRxiv, 2019).
# These are yes or no findings as the source states them, for the method shown. Some entries that bind do so weakly or less than the wild type. Tags and fused reporters may be left off the sequences shown.
# T1: His-tagged AtYefM co-expressed with AtYoeB from the pET-Duet vector (Agrobacterium tumefaciens strC58) (UniProt Q7CY23)
# T1 sequence: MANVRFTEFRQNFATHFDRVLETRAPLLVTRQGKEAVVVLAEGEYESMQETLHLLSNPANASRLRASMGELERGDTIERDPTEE
# B1: AtYoeB co-expressed with His-AtYefM from the pET-Duet vector (natural protein)
# chain: MKLVWTLSSWDDYEFWQRTDARMVEKINDLIRNAKRTPFAGLGKPEPLKGDMAGYWSRRITAEHRFVYRVSGSGSEQRLEVIQCRFHYQ
# Target: T1, His-tagged AtYefM co-expressed with AtYoeB from the pET-Duet vector (Agrobacterium tumefaciens strC58)
# Assay: SEC
binder,measurement,value
B1,binding,binds
